Measurements as given in US20040137588A1 (published 2004).
These are yes or no findings as the source states them, for the method shown. Some entries that bind do so weakly or less than the wild type.

By UniProt entry, the sequences of proteins in these tests, tags left out. Where a name states a change or a piece, a line headed by the entry shows the natural chain unless it says otherwise. Residues count along the entry.
UniProt P17948, residues 27-687: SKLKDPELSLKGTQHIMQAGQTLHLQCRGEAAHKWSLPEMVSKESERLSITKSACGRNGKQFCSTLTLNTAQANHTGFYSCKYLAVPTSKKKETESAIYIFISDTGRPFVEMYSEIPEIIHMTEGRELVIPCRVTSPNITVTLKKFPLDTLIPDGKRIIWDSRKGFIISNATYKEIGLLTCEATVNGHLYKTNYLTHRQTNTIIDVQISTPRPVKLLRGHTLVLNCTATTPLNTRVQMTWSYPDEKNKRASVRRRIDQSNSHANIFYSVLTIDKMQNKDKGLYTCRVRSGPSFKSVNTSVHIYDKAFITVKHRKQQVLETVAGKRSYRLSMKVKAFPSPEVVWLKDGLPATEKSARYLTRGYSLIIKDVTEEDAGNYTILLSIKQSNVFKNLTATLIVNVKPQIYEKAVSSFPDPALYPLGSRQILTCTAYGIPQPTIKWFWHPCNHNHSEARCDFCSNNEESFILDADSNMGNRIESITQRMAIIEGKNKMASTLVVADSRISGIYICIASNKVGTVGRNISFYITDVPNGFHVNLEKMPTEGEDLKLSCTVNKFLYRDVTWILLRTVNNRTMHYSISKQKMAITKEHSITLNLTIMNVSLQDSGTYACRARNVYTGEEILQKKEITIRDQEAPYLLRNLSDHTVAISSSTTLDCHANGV

Legend:
[1] = target: VEGF-R1/Fc chimeric protein (R&D systems) (human) (UniProt P17948); test: SPR and ELISA based assay
[2] = target: VEGF-R1/Fc chimeric protein (R&D systems) (human) (UniProt P17948); test: SPR and ELISA based analysis

binding [1]: binds | binding [2]: binds
B1: purified refolded dimeric VEGF-B167 (ligand, human, UniProt P49765-2 22-188, looked up, not shown: small tags and cut ends)
chain: PVSQPDAPGHQRKVVSWIDVYTRATCQPREVVVPLTVELMGTVAKQLVPSCVTVQRCGGCCPDDGLECVPTGQHQVRMQILMIRYPSSQLGEMSLEEHSQCECRPKKKDSAVKPDSPRPLCPRCTQHHQRPDPRTCRCRCRRRSFLRCQGRGLELNPDTCRCRKLRR
notes: mature
